Source: article PMC3446372
Results are given in words; binding and its absence hold for the method and conditions named. Binding seen in cells or lysates may run through a third protein. Some results given as binding are weak or reduced against the parent protein; the word gives no strength. For some assays here: Sequences can lack the tags named with a protein. Blank lines part the entries; values can stand above or below the molecule they belong to.

Protein sequences, listed by entry. Tags and fused reporters are not part of them.
UniProt P40763: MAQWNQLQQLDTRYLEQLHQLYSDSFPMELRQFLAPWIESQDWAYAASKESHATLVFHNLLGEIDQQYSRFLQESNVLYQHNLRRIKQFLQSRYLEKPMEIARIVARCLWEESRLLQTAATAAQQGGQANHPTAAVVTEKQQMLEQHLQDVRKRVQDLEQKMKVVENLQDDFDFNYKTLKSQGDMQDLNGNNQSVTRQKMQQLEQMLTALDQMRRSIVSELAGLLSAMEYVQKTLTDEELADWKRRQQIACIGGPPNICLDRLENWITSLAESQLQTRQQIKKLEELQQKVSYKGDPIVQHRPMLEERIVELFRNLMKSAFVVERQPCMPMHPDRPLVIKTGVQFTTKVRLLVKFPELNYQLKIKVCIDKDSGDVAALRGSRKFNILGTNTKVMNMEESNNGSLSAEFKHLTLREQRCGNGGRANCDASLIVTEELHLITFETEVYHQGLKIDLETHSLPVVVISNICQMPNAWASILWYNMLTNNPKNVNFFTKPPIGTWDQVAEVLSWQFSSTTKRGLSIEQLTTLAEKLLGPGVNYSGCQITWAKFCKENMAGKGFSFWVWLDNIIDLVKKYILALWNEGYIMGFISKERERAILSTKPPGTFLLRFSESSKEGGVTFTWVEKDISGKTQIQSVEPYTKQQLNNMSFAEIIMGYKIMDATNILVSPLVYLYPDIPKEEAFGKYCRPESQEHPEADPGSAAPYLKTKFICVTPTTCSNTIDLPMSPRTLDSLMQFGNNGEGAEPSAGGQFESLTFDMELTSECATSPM
UniProt P42227: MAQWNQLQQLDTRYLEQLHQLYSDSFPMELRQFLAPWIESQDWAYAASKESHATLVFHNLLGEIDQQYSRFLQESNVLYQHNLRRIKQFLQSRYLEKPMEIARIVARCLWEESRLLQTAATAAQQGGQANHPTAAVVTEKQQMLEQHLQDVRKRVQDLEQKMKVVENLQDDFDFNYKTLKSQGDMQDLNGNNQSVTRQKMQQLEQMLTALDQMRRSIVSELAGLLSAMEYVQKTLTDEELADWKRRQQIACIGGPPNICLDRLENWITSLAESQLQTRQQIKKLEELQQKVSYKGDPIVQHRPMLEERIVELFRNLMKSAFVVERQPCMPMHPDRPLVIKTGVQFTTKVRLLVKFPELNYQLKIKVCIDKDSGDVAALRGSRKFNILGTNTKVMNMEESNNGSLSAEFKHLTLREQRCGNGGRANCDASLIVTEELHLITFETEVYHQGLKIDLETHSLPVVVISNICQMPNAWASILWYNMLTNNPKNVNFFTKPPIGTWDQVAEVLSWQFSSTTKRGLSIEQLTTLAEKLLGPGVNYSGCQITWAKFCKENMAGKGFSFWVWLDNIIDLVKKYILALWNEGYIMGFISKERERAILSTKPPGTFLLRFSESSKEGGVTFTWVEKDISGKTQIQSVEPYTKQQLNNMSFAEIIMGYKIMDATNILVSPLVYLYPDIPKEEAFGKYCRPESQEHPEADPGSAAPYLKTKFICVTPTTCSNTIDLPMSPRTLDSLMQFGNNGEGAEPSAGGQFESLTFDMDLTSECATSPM

What was measured:
[1] = molecular target: T1, Myc-PTPMeg2 (human) (UniProt P43378); assay: co-IP; HEK293T (293T) cells co-transfected with Myc-PTPMeg2 and Flag-tagged STAT; lysis buffer 20 mM Tris-Cl pH 7.6, 150 mM NaCl, 0.5% NP40; precipitated with anti-Flag or (reciprocal) anti-Myc antibody, 4°C; without or with IL-6 stimulation for 30 min
T1 sequence: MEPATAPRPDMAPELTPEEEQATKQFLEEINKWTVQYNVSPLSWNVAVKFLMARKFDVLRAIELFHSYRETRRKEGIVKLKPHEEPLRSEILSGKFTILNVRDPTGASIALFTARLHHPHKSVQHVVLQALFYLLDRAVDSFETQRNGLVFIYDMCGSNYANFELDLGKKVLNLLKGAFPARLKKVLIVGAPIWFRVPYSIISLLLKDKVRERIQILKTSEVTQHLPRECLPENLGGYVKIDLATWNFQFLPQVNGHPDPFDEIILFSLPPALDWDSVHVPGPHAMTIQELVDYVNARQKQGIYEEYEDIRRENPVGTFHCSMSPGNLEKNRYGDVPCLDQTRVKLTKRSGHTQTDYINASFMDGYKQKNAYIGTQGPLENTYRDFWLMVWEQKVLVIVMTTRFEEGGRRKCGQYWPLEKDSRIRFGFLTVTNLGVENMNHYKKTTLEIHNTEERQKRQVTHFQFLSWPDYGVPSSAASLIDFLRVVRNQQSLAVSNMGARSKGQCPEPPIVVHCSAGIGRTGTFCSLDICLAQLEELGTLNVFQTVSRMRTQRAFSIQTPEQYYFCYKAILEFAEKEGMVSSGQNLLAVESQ

[2] = molecular target: Flag-STAT3 (UniProt P40763); assay: as above
[3] = molecular target: GST-STAT3 (UniProt P40763); assay: pull-down; GST or GST-STAT3 fusion proteins mixed with Myc-PTPMeg2 prepared from cells; GST beads, washed by PBST buffer; only the target purified
[4] = molecular target: endogenous STAT3 (MCF7 cells) (human (endogenous in MCF7)) (UniProt P40763); assay: co-IP; endogenous proteins; lysates from mouse brain tissue or MCF7 cells (without or with IL-6 for 30 min); anti-STAT3 antibody (C20) and anti-PTPMeg2 rabbit polyclonal antibody
[5] = molecular target: endogenous STAT3 (mouse brain tissue) (mouse (endogenous in mouse brain tissue)) (UniProt P42227); assay: as above

- binding [1]: binds
Molecule: phosphorylated Flag-STAT3 (pSTAT3) (from UniProt P40763 1-770)

- binding [2]: binds
- binding [3]: binds
B1: Myc-PTPMeg2 (enzyme, UniProt P43378 1-593)
chain: MEPATAPRPDMAPELTPEEEQATKQFLEEINKWTVQYNVSPLSWNVAVKFLMARKFDVLRAIELFHSYRETRRKEGIVKLKPHEEPLRSEILSGKFTILNVRDPTGASIALFTARLHHPHKSVQHVVLQALFYLLDRAVDSFETQRNGLVFIYDMCGSNYANFELDLGKKVLNLLKGAFPARLKKVLIVGAPIWFRVPYSIISLLLKDKVRERIQILKTSEVTQHLPRECLPENLGGYVKIDLATWNFQFLPQVNGHPDPFDEIILFSLPPALDWDSVHVPGPHAMTIQELVDYVNARQKQGIYEEYEDIRRENPVGTFHCSMSPGNLEKNRYGDVPCLDQTRVKLTKRSGHTQTDYINASFMDGYKQKNAYIGTQGPLENTYRDFWLMVWEQKVLVIVMTTRFEEGGRRKCGQYWPLEKDSRIRFGFLTVTNLGVENMNHYKKTTLEIHNTEERQKRQVTHFQFLSWPDYGVPSSAASLIDFLRVVRNQQSLAVSNMGARSKGQCPEPPIVVHCSAGIGRTGTFCSLDICLAQLEELGTLNVFQTVSRMRTQRAFSIQTPEQYYFCYKAILEFAEKEGMVSSGQNLLAVESQ

- binding [4]: binds
B2: endogenous PTPMeg2 (MCF7 cells) (enzyme, UniProt P43378 1-593)
chain: MEPATAPRPDMAPELTPEEEQATKQFLEEINKWTVQYNVSPLSWNVAVKFLMARKFDVLRAIELFHSYRETRRKEGIVKLKPHEEPLRSEILSGKFTILNVRDPTGASIALFTARLHHPHKSVQHVVLQALFYLLDRAVDSFETQRNGLVFIYDMCGSNYANFELDLGKKVLNLLKGAFPARLKKVLIVGAPIWFRVPYSIISLLLKDKVRERIQILKTSEVTQHLPRECLPENLGGYVKIDLATWNFQFLPQVNGHPDPFDEIILFSLPPALDWDSVHVPGPHAMTIQELVDYVNARQKQGIYEEYEDIRRENPVGTFHCSMSPGNLEKNRYGDVPCLDQTRVKLTKRSGHTQTDYINASFMDGYKQKNAYIGTQGPLENTYRDFWLMVWEQKVLVIVMTTRFEEGGRRKCGQYWPLEKDSRIRFGFLTVTNLGVENMNHYKKTTLEIHNTEERQKRQVTHFQFLSWPDYGVPSSAASLIDFLRVVRNQQSLAVSNMGARSKGQCPEPPIVVHCSAGIGRTGTFCSLDICLAQLEELGTLNVFQTVSRMRTQRAFSIQTPEQYYFCYKAILEFAEKEGMVSSGQNLLAVESQ

- binding [5]: binds
B3: endogenous PTPMeg2 (mouse brain tissue) (enzyme, UniProt O35239 1-593)
chain: MEPATAPRPDMAPELTPEEEQATKQFLEEINKWTVQYNVSPLSWNVAVKFLMARKFDVLRAVELFHCYRETRRKEGIVKLKPHEEPLRSEILSGKFTILNVRDPTGASIALFTARLHHPHKSAQHVVLQALFYLLDRAVDSFETQRNGLVFIYDMCGSNYANFELDLGKKVLNLLKGAFPARLKKVLIVGAPIWFRVPYSIISLLLKDKVRERIQILKTSEVTQHLPRECLPENLGGYVKIDLATWNFQFLPQVNGHPDPFDEIILSSLPPALDWDSVHVPGPHAMTIQELVDYVNTRQKRGIYEEYEDIRRENPVGTFHCSMSPGNLEKNRYGDVPCLDQTRVKLTKRSGHTQTDYINASFMDGYKQKNAYIGTQGPLENTYRDFWLMVWEQKVLVIVMTTRFEEGGRRKCGQYWPLEKDSRIRFGFLTVTNLGVENMNHYKKTTLEIHNTEERQKRQVTHFQFLSWPDYGVPSSAASLIDFLRVVRNQQSMAVGNLGARSKGQCPEPPIVVHCSAGIGRTGTFCSLDICLAQLEELGTLNVFQTVSRMRTQRAFSIQTPEQYYFCYKAILEFAEREGMVPSGHSLLAMDGQ
